The target in experiment [1] is T1, VEGF (UniProt P15692-9 27-147, limits assumed).
T1 construct: Only the selection names the 121 isoform; also called VEGF(121)
T1 sequence (looked up): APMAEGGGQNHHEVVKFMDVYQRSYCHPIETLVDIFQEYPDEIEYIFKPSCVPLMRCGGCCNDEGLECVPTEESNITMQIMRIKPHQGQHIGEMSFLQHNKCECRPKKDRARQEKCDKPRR
Put plainly: phage ELISA. (In general: In an ELISA, binding on a coated surface is turned into a signal by an enzyme label.)

For experiment [2], the target named is T1, VEGF. Put plainly: Octet biolayer interferometry, soluble R1D4 on VEGF. Background: BLI is a label-free optical method that tracks binding on a fibre tip over time.
In experiment [3] the target is T1, VEGF. Put plainly: phage ELISA (OD450); wells with VEGF, TNF alfa or 2%MPBS only.

These are yes or no findings as the source states them, for the method shown. Some binding calls cover weakened binding; strength is not graded here.

B1: R1 D4 anti-VEGF (designed binder)
chain: NVSPPRRARVTDATETTITIPWEVAGGPIISFQVDAVPANGQTPIQRTITPDATGYTITGLQPGTDYKIYLYTLNDNARSSPVVIDAST
notes: 14FN3 variant; on phage in phage ELISA, soluble His-tagged protein in Octet
Consider B1, for which the binding entry in experiment [1], in experiment [2] and in experiment [3] was “binds” in each case.

B2: R1 F1 anti-VEGF (designed binder)
chain: NVSPPRRARVTDATETTITIPWALAGGPIISFQVDAVPANGQTPIQRTITPDIRGYTITGLQPGTDYKIYLYTLNDNARSSPVVIDAST
As for B2, the binding entry in experiment [1] and in experiment [3] was “binds” throughout.

The values are drawn from US20140135474A1 (PROTELICA, published 2014).
